These are yes or no findings as the source states them, for the method shown. In cells and extracts the contact can be indirect. Some binding calls cover weakened binding; strength is not graded here.
Tests used:
[1] = target: T1, Nrf2-VC (human) (UniProt Q16236); assay: split reporter; BiFC with Venus fragments VN155 and VC155 co-expressed in Hep3B cells; fixed 24 h after transfection, confocal microscopy
T1 sequence: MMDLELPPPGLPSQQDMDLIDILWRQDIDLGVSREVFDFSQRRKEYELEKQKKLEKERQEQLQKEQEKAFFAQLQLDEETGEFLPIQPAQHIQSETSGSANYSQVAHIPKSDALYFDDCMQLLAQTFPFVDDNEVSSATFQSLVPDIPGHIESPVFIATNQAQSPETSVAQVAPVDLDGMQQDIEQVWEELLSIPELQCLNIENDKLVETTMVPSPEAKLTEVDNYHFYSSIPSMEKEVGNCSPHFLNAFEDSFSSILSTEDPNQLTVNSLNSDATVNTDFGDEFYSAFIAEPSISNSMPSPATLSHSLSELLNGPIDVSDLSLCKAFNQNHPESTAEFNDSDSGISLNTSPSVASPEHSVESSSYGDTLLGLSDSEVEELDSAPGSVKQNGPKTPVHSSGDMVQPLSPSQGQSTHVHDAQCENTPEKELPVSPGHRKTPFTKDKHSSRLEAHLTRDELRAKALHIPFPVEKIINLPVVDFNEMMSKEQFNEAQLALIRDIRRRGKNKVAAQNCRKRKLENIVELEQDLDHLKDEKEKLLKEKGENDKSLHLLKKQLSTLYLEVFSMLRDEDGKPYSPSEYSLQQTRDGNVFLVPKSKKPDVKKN

Protein sequences, listed by entry. Tags and fused reporters are not part of them. Lines headed by an entry give the natural chain unless they say otherwise; changes in a name come on top.
UniProt P08047: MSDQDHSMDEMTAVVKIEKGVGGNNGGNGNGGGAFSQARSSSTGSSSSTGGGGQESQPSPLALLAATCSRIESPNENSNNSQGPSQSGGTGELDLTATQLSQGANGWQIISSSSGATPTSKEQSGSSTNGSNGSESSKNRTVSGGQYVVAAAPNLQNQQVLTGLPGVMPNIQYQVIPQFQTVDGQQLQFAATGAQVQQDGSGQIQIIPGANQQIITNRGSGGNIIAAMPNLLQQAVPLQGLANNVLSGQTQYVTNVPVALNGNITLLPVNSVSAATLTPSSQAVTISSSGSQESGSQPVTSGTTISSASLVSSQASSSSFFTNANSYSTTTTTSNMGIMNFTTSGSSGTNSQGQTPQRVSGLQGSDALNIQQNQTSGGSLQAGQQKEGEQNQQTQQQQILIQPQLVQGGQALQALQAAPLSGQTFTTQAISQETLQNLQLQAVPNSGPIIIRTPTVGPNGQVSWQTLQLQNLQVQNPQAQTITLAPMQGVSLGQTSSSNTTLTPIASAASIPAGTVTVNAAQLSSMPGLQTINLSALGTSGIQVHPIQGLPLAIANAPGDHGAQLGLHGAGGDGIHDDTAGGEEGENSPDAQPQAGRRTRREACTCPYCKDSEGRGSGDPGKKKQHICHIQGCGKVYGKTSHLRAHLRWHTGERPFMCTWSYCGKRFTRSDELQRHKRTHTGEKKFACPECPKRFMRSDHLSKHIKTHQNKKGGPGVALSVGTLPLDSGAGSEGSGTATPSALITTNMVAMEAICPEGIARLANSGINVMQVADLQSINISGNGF
UniProt Q14145: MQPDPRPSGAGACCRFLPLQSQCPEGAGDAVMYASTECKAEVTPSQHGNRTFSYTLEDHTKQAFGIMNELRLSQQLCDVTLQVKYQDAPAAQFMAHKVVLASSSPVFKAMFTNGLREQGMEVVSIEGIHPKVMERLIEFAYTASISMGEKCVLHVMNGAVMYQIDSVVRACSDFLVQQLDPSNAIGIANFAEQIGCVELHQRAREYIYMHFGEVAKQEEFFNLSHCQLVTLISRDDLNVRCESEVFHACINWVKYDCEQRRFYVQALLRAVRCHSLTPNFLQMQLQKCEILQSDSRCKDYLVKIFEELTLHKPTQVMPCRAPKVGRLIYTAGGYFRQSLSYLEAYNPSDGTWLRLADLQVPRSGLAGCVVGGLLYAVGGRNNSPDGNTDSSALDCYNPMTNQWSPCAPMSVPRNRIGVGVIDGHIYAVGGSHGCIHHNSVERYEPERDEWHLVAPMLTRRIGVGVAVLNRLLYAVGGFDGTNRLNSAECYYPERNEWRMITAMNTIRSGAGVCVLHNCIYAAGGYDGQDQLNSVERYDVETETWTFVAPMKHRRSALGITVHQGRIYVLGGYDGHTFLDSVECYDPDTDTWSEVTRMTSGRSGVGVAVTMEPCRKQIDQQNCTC

[2] = target: Myc-Sp1 full-length (human) (UniProt P08047); assay: co-IP; Hep3B cells transfected with Myc-Sp1 constructs; lysate (50 mM Tris-HCl pH 8.0, 150 mM NaCl, 1% Triton X-100) precipitated with anti-Myc antibody and protein G-Sepharose at 4 °C; blot with anti-Keap1
[3] = target: Keap1 fused to the C-terminal fragment of Venus (VC155) (human) (UniProt Q14145); assay: split reporter; BiFC with Venus fragments VN155 and VC155 co-expressed in Hep3B cells; fixed 24 h after transfection, confocal microscopy
[4] = target: FLAG-Keap1 full-length (human) (UniProt Q14145); assay: co-IP; Hep3B cells transfected with FLAG-Keap1 constructs; lysate (50 mM Tris-HCl pH 8.0, 150 mM NaCl, 1% Triton X-100) precipitated with anti-FLAG antibody and protein G-Sepharose at 4 °C; blot with anti-Sp1

Substance: FLAG-WDR23 isoform 1-VN (from UniProt Q8TEB1-1 1-546) (other; other documents disagree on this pair)
- binding [1]: binds

Substance: Keap1 (endogenous, Hep3B) (from UniProt Q14145 1-624)
- binding [2]: binds

Substance: N-terminal fragment of Venus (VN155, I152 L) fused to the N terminal of Sp1 (from UniProt P08047-1 1-785)
- binding [3]: binds

Substance: Sp1 (endogenous, Hep3B) (from UniProt P08047-1 1-785)
- binding [4]: binds

Source: publication PMC8141886
